Amino acid sequences for entries named in this document (tags omitted).
UniProt Q00534: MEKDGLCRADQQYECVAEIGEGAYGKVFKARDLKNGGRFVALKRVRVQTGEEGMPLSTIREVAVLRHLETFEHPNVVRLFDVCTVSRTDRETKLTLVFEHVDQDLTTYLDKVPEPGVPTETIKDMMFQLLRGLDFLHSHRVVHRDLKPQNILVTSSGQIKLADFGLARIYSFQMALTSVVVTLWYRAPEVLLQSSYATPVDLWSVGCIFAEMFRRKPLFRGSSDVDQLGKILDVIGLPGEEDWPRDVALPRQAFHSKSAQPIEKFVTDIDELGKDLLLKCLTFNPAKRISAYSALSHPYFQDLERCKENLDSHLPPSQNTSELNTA

According to PMC11600263:

Target: T1, delta‐catenin (CTNND1) (human (endogenous in HDFα)) (UniProt O60716)
T1 sequence: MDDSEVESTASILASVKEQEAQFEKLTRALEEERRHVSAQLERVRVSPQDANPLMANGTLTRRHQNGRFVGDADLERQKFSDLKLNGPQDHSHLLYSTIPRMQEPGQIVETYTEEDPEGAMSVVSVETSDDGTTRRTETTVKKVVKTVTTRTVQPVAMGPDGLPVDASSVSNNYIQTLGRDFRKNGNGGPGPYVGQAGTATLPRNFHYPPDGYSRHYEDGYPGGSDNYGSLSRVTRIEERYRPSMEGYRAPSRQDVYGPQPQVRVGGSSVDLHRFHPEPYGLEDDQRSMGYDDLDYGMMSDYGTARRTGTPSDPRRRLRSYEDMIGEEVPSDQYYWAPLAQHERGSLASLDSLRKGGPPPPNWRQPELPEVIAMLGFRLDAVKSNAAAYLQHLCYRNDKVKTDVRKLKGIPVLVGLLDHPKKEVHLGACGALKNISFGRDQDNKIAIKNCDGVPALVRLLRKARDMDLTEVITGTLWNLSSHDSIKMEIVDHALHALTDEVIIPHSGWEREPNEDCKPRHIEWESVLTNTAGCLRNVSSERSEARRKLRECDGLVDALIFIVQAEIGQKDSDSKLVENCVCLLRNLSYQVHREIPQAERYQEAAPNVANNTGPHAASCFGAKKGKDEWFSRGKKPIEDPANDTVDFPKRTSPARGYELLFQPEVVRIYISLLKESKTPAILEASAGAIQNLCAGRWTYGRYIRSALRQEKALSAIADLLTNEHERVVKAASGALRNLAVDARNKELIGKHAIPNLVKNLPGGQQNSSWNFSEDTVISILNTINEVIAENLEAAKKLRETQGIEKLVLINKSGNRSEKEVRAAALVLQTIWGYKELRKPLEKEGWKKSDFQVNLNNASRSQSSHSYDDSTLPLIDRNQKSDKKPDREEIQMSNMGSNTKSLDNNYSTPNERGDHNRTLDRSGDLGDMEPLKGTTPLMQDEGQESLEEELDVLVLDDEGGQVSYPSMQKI
Experiment: affinity purification with mass spectrometry; immunoprecipitation with anti‐CTNND1 coupled with proteomics analysis in 7Ap‐treated HDFα cells

- binding: binds
Substance: cyclin‐dependent kinase 6 (CDK6) (from UniProt Q00534 1-326) (enzyme)

These are yes or no findings as the source states them, for the method shown. In cells and extracts the contact can be indirect. These calls come from enrichment with a bait or labelling near it, and not all partners need be listed.
